The results in this text go back to publication PMC9925821.

By UniProt entry, the sequences of proteins in these tests, tags left out. Where a name states a change or a piece, a line headed by the entry shows the natural chain unless it says otherwise.
UniProt Q96KN1: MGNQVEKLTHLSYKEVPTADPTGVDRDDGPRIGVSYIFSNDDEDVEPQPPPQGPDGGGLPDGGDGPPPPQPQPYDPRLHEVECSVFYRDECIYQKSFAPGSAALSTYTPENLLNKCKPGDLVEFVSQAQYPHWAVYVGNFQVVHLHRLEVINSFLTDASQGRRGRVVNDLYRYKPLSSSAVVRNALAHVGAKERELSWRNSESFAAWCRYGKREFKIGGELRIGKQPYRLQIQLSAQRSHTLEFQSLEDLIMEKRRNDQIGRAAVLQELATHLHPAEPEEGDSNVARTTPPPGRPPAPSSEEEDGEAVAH

Numbering of substitutions follows the chain as printed. No constants are given. Whether binding was seen depends on the method and setting. Binding seen in cells or lysates may run through a third protein. For some of these results: A result given as binding can be weak or reduced; the word gives no strength. For some of these results: Tags and fused reporters may be left off the sequences shown.

Experiment [1] concerns the target T1, Flag-FKBP51 (True-ORF-Myc-DDK (Flag)-tagged human FKBP51-transcript variant 1) (human) (UniProt Q13451).
T1 sequence: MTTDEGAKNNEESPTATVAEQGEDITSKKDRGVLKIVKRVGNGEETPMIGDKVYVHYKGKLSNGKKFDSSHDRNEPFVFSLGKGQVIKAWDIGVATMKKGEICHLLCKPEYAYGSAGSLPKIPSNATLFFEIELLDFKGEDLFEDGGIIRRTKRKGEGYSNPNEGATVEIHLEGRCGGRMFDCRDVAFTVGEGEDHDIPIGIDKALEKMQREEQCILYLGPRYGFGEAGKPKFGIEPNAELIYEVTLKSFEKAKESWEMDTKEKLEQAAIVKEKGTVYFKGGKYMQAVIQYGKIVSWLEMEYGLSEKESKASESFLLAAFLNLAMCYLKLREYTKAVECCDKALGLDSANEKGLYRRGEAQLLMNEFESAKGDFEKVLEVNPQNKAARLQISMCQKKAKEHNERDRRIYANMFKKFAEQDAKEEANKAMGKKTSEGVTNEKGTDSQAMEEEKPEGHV
The experiment in a line: co-IP; A375 cells transfected with Flag-tagged FKBP51 forms (with or without HA-PHLPP, HA-K63-Ub, siPHLPP RNAs), immunoprecipitated with anti-Flag antibody, IgG or empty vector as control, immunoblot. For orientation: In western blotting, separated proteins are transferred to a membrane and probed.

Experiment [2] deals with T2, FKBP51s (spliced FKBP51 isoform) (human (endogenous in A375)) (UniProt Q13451).
T2 sequence: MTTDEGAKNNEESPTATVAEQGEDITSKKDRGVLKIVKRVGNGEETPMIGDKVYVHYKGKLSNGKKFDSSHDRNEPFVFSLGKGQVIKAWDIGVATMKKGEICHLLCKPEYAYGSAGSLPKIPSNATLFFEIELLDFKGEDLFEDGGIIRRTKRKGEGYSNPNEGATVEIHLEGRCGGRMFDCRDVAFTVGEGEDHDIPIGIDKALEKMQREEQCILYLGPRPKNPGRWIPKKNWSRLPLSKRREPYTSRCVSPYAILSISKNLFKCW
The experiment in a line: co-IP; endogenous FKBP51 or FKBP51s immunoprecipitated from A375 whole lysates (modified RIPA buffer) with anti-FKBP51 or anti-FKBP51s antibody, Protein-A/G agarose, IgG as control, immunoblot; in some panels cells treated with 0.5 and 1 µM 17-AAG for 16 h.

For experiment [3], the target named is T3, FKBP51 (canonical isoform) (human (endogenous in A375)) (UniProt Q13451).
T3 sequence: T1 sequence
The description is as above.

Experiment [4] addresses T4, Flag-tagged FKBP51-TPRmut (K352A/R356A) (human) (UniProt Q13451).
T4 sequence: T1 sequence with K352A, R356A
Nature of the experiment: co-IP; A375 cells transfected with Flag-tagged FKBP51 forms (with or without HA-PHLPP, HA-K63-Ub, siPHLPP RNAs), immunoprecipitated with anti-Flag antibody, IgG or empty vector as control, immunoblot.

In experiment [5] the target is T2, FKBP51s (spliced FKBP51 isoform) (human (endogenous in A375)). The experiment in a line: co-IP; endogenous FKBP51 and FKBP51s immunoprecipitated from two glioblastoma cell lines (Fig. S2d), immunoblot for PHLPP.
Experiment [6] concerns the target T3, FKBP51 (canonical isoform) (human (endogenous in A375)). The description is as above.

Regarding NSE2 (from UniProt Q96KN1), the binding result in experiment [1] is “binds”.
For the substance “PH domain leucine-rich repeat protein phosphatase (PHLPP) (human (endogenous in A375))”, the binding result in experiment [2] is “no binding”; in experiment [3] it was “binds”; in experiment [4] it was “binds”; in experiment [1] it was “binds”; in experiment [5] it was “no binding”; in experiment [6], “binds”.
